Data as given in PubChem BioAssay AID2685 (National Center for Advancing Translational Sciences (NCATS), 2010).
The other results are listed elsewhere or left out. The main result of the screen is listed elsewhere. These columns were measured beside it and carry no call. Compounds called inactive in the main read-out are mostly missing here. The note in brackets gives the kind of curve behind each potency; many fits are weak.

Assay: qHTS Assay for Lipid Storage Modulators in Drosophila S3 Cells;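 as to cell number change: cells counted by Cell Tracker Red CMTPX staining in the red channel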
Conditions: BODIPY lipid droplet fluorescence, 18-24 h; for cell number change: measured here: cell count max response, cells fed with added oleic acid
In short: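 Laser-scanning cytometry quantifies lipid droplet accumulation (500–530 nm total intensity; droplet/cell object ratio) in oleic acid-fed (400 uM added) Drosophila S3 cells treated with a concentration series. 20 uM Triacsin C defined 100% inhibition.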

[1] = measured here: cell number channel AC50, cells fed with added oleic acid
[2] = measured here: lipid fluorescence (Fed channel) AC50, cells fed with added oleic acid

Row | Structure (SMILES) | cell number change | AC50 [1] | AC50 [2]
1 | COC(=O)Nc1ccc(S(=O)(=O)N2CCCCC2)cc1 | -59% | 10.3 µM [falling, partial curve, poor fit] | 23.1 µM [falling, partial curve]
2 | CCOc1ccccc1NC(=O)C1CCCN(C(=O)NCc2ccccc2)C1 (stereo unspecified) |  | 6.51 µM [rising, single point] | 
3 | CCCCNC(=S)NNC(=O)c1csc2c1CCC(C)C2 (stereo unspecified) |  |  | 16.4 µM [falling, single point]
4 | CCOc1ccc(C(=O)N/N=C/c2c(C)[nH]c(=O)[nH]c2=O)cc1 | 16.6% | 4.11 µM [rising, single point] | 
5 | CN(c1ccccc1C(=O)Nc1cccc(C(F)(F)F)c1)S(C)(=O)=O | 0.656% |  | 
6 | O=C(Cc1n[nH]c(=O)c2ccccc12)OCC(=O)N(Cc1ccccc1)Cc1ccccc1 | 36.6% |  | 29.1 µM [rising, single point]
7 | O=C(N/N=C/c1cccc(F)c1)NC1CCCCC1 | -43.7% | 16.4 µM [falling, single point] | 14.6 µM [falling, single point]
8 | CCc1cccc(C)c1NC(=O)C1CCCN1C(=O)NCc1ccccc1 (stereo unspecified) | -1.35% |  | 29.1 µM [falling, single point]
9 | O=C(Cc1ccccc1)NCC(=O)OCC(=O)c1ccc(Cl)cc1 | 22% |  | 1.3 µM [rising, full curve, poor fit]
10 | NS(=O)(=O)c1ccc(NC(=O)CSc2n[nH]c(=O)n2C2CC2)cc1 | 8.58% | 0.82 µM [falling, partial curve] | 0.517 µM [falling, partial curve, poor fit]
11 | COCCN(C(=O)COC(=O)c1cccnc1Cl)c1c(N)n(Cc2ccccc2)c(=O)[nH]c1=O |  |  | 3.66 µM [rising, partial curve]
12 | Nc1ccc(S(=O)(=O)N2CCOCCOCCOCCOCCOCC2)cc1 | -6.57% |  | 
13 | Cc1noc(C)c1C(=O)Nc1ccc(C#N)cc1 | 36.2% | 29.1 µM [rising, single point] | 32.6 µM [rising, single point]
14 | CCCOc1ccc(N2C(=O)C3ON(c4ccccc4)C(c4ccc(O)c(OC)c4)C3C2=O)cc1 (stereo unspecified) | 76.1% | 14.6 µM [rising, partial curve] | 
15 | Cc1nc(C)c(-c2csc(Nc3ccc(F)cc3)n2)s1 | -23.5% |  | 16.4 µM [falling, single point]
16 | O=[N+]([O-])c1ccc(-c2nc(-c3ccncc3)no2)cc1 | 9.54% |  | 14.6 µM [rising, partial curve]
17 | CCCCNC(=O)N(C)c1nc2ccccc2s1 | -5.42% |  | 0.259 µM [rising, partial curve]
18 | CCCNS(=O)(=O)c1ccc(CCC(=O)Nc2cc(Cl)ccc2Oc2ccccc2)cc1 | -12.4% |  | 29.1 µM [falling, single point]
19 | O=c1[nH]c(SCCOc2ccccc2)nc2ccccc12 | -56.2% | 29.1 µM [falling, partial curve] | 32.6 µM [falling, single point]
20 | CCOC(=O)c1ccc(Nc2cc(C)nc(C)c2C(=O)OCC)cc1 | 25.6% | 2.06 µM [rising, full curve, poor fit] | 

Row | Structure (SMILES) | cell number change | AC50 [1] | AC50 [2]
21 | Cc1ccc(-c2n[nH]c(=S)c3ccccc23)cc1S(=O)(=O)NCC1CCCO1 (stereo unspecified) | -43.4% | 14.6 µM [falling, partial curve, poor fit] | 
22 | O=C(CSc1n[nH]c(=O)n1C1CC1)Nc1cc(Cl)ccc1Oc1ccccc1 | -25.5% |  | 29.1 µM [falling, single point]
23 | COc1ccc2[nH]c(=O)c(CN(Cc3cccnc3)S(=O)(=O)c3ccccc3F)cc2c1 | -21% |  | 0.184 µM [falling, single point]
24 | C=CCn1c(CNS(=O)(=O)c2ccc(Br)cc2)n[nH]c1=S |  |  | 2.59 µM [rising, single point]
25 | Cc1ccccc1NC(=O)CN1C(=O)CSc2ccccc21 | 13.5% | 0.517 µM [rising, partial curve, poor fit] | 0.731 µM [rising, full curve]
26 | CCN(CC(=O)Nc1c(F)cccc1F)C(=O)C1CCN(C(=O)c2ccc(Cl)cc2)CC1 | -25% |  | 
27 | O=C(NCCc1cccnc1)C1CCC(=O)N(Cc2ccc(Cl)cc2)C1 (stereo unspecified) | 14.8% |  | 0.58 µM [falling, single point]
28 | COc1ccccc1NS(=O)(=O)c1cccc(C(=O)NCC(c2ccc(F)cc2)N2CCOCC2)c1 (stereo unspecified) |  | 3.66 µM [rising, single point] | 3.66 µM [rising, single point]
29 | CC1(C)CC(=O)C(C2C3=C(CC(C)(C)CC3=O)Oc3ccccc32)=C(O)C1 (stereo unspecified) | 7.86% |  | 0.366 µM [rising, full curve, poor fit]
30 | CCN1CCN(C(=O)c2nn(-c3ccc(C)cc3)c(=O)c3c2c2ccccc2n3C)CC1 | -2.84% |  | 13 µM [falling, partial curve, poor fit]
31 | CCN(C(=O)CSc1nnnn1-c1ccccc1)C1CCS(=O)(=O)C1 (stereo unspecified) | 22.8% | 1.64 µM [falling, partial curve] | 3.66 µM [falling, partial curve]
32 | O=C(CSc1nc(-c2ccco2)cc(C(F)(F)F)n1)N1CCc2ccccc2C1 | -49.1% | 16.4 µM [falling, single point] | 
33 | Cc1ccc(N2/C(=N/c3nc(C)cc(C)n3)NC(=O)CC2C(=O)O)cc1 (stereo unspecified) | -62.6% | 18.4 µM [falling, single point] | 20.6 µM [falling, single point]
34 | Cc1cc(Br)c(S(=O)(=O)NCc2cccnc2)cc1C | -9.12% |  | 0.00517 µM [falling, full curve, poor fit]
35 | S=C(NCCc1cccc(Cl)c1)NCc1ccccc1 | -8.67% |  | 
36 | Cc1ccc(NC(=O)CC2C(=O)N(Cc3ccccc3)C(=S)N2NC(=O)c2ccccc2)c(C)c1 (stereo unspecified) | 0.704% |  | 0.82 µM [rising, full curve]
37 | COc1cc(C)c(C(C)C)cc1S(=O)(=O)NCCCn1ccnc1 | -3.8% |  | 29.1 µM [rising, single point]
38 | COc1ccc(/C=N/NC(=S)SC)cc1OC | 20.1% | 0.291 µM [rising, full curve, poor fit] | 
39 | CC1=C/C(=N\NC(=O)c2ccccc2)CC1 | -33.3% | 29.1 µM [falling, single point] | 
40 | Cc1cc(C(=O)CSc2nnnn2C)c(C)n1CCc1ccc(Cl)cc1 | -11.5% |  | 29.1 µM [rising, single point]

Row | Structure (SMILES) | cell number change | AC50 [1] | AC50 [2]
41 | C=CCNCCCCOc1ccc(Br)cc1C | 2.47% |  | 0.651 µM [falling, single point]
42 | CC1CCCC(NC(=O)CSc2nnc(N)s2)C1C (stereo unspecified) | -15.9% |  | 2.31 µM [falling, partial curve, poor fit]
43 | CCN(C(=O)CSc1nncs1)c1c(N)n(Cc2ccccc2)c(=O)[nH]c1=O | 23.1% |  | 0.082 µM [rising, full curve, poor fit]
44 | N/C(COc1ccc(C(=O)O)cc1)=N\O | 1.16% |  | 4.11 µM [falling, single point]
45 | COc1ccccc1CNC(=O)c1ccncc1 | 13.9% |  | 29.1 µM [falling, single point]
46 | COc1ccc(N=C2CCCN2CC(N)=O)cc1 | -12.1% |  | 3.26 µM [falling, single point]
47 | CCOc1ccc(OCC)c(NC(=O)CN2CCN(c3cccc(C)c3)C(C)C2)c1 (stereo unspecified) | -27% |  | 29.1 µM [falling, single point]
48 | CCN(CC)CCN1C(=O)/C(=C\c2ccc(Cl)c([N+](=O)[O-])c2)SC1=Nc1ccc(OC)cc1 | 25.7% |  | 
49 | CCn1c(=O)oc2cc(NC(=O)CCl)ccc21 | -6.69% |  | 
50 | CCC(C)CCN1C(N(C)C)=NC[C@@H]1Cc1ccccc1 (stereo partly specified) | 25.6% |  | 1.84 µM [rising, partial curve]
51 | O=C(COC(=O)Cc1ccccc1F)Nc1ccc(Cl)cn1 | 12.7% |  | 
52 | O=C(NC(CC(=O)N1CCCC(C(F)(F)F)C1)c1ccccc1)c1ccccc1Cl (stereo unspecified) | 1.08% |  | 
53 | CC(C)C(=O)Nc1ccc(NC(=O)c2ccc3c(c2)OCO3)cc1 | 163% | 29.1 µM [rising, single point] | 
54 | C=CCN1C(=O)N/C(=C/c2ccc(N3CCOCC3)o2)C1=O | -59.4% | 29.1 µM [falling, single point] | 20.6 µM [falling, partial curve]
55 | Cc1cc(C)nc(SCc2ccc(C(=O)N/N=C3\CCCC(=O)C3)cc2)n1 |  |  | 29.1 µM [rising, single point]
56 | Cc1cccc(SCC(=O)Nc2ccc3c(c2)OCCO3)c1 | 8.33% |  | 1.12 µM [rising, full curve, poor fit]
57 | CC1CCCC(NC(=O)C2CCCN2S(=O)(=O)c2cccc3nsnc23)C1C (stereo unspecified) | 27.1% |  | 16.4 µM [rising, single point]
58 | O=C(Cc1c(Cl)cccc1Cl)OCC(=O)N1CCN(C(=O)c2ccco2)CC1 |  | 0.146 µM [falling, single point] | 0.13 µM [falling, single point]
59 | CCS(=O)(=O)N1CCN(C(=O)c2ccco2)CC1 | -20.9% |  | 4.11 µM [falling, full curve]
60 | CCN(CC)C(=O)c1sc(NC(=O)c2ccc(C)c([N+](=O)[O-])c2)c(C#N)c1C | 92.9% |  | 18.4 µM [rising, single point]

An excerpt from above in order of molecular weight, rising:
Row | Structure (SMILES) | cell number change | AC50 [1] | AC50 [2]
49 | CCn1c(=O)oc2cc(NC(=O)CCl)ccc21 | -6.69% |  | 
41 | C=CCNCCCCOc1ccc(Br)cc1C | 2.47% |  | 0.651 µM [falling, single point]
53 | CC(C)C(=O)Nc1ccc(NC(=O)c2ccc3c(c2)OCO3)cc1 | 163% | 29.1 µM [rising, single point] | 
58 | O=C(Cc1c(Cl)cccc1Cl)OCC(=O)N1CCN(C(=O)c2ccco2)CC1 |  | 0.146 µM [falling, single point] | 0.13 µM [falling, single point]
